In one experiment the target is T1, GST-CDC6 (UniProt Q99741).
T1 sequence: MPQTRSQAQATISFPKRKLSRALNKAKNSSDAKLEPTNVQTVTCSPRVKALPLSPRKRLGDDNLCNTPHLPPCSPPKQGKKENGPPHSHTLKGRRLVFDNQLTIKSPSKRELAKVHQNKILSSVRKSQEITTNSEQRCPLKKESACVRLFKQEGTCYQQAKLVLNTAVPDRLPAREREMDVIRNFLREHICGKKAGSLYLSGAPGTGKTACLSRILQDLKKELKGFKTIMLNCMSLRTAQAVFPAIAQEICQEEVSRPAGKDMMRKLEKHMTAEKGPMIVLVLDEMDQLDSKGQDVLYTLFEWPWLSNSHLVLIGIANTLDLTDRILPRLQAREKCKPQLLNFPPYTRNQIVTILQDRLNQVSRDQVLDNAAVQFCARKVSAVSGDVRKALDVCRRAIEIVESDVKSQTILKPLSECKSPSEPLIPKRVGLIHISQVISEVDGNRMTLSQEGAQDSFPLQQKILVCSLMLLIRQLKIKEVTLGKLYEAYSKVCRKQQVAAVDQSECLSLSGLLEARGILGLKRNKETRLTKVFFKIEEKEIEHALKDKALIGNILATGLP
In words: pull-down; GST-Cdt1, GST-CDC6 or GST incubated with bacterially produced GRWD1 or its truncated mutants; collected on glutathione beads; immunoblotting with anti-GRWD1 or anti-GST; both purified. (In general: Immunoblotting shows a protein as a band on a membrane.)

By UniProt entry, the sequences of proteins in these tests, tags left out. Where a name states a change or a piece, a line headed by the entry shows the natural chain unless it says otherwise.
UniProt Q9BQ67: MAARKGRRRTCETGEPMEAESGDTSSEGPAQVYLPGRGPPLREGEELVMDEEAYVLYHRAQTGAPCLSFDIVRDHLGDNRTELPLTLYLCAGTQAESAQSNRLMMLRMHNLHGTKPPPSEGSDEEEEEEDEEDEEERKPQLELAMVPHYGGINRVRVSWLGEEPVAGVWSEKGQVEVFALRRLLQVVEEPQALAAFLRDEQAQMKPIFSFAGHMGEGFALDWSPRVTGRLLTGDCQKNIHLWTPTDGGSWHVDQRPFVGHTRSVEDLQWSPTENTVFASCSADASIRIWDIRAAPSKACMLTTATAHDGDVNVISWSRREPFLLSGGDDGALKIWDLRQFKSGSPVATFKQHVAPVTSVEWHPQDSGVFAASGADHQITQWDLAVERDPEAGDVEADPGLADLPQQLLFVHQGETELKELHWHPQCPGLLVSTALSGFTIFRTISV

Another experiment has as its target T2, GST-Cdt1 (UniProt Q9H211).
T2 sequence: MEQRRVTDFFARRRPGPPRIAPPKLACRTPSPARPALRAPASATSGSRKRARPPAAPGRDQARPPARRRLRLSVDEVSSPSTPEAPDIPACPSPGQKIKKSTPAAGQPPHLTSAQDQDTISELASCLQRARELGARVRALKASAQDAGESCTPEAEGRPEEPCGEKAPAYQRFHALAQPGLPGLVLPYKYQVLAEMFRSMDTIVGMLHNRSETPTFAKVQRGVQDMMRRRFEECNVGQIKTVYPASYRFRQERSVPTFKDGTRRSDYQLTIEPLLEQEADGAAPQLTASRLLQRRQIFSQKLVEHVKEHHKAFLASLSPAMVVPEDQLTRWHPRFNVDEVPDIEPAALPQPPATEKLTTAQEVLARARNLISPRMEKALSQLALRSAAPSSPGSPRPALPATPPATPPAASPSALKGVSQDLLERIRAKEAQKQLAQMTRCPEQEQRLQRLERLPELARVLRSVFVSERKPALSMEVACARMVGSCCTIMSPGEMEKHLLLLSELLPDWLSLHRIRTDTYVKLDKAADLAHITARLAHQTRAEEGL
Described as above.

Results are given in words; binding and its absence hold for the method and conditions named. A result given as binding can be weak or reduced; the word gives no strength. Where a sequence is shown, tags or fusion partners need not be part of it.

For the substance “GRWD1 Δacid (bacterially produced, lacking the acidic domain) (from UniProt Q9BQ67)”, the binding result with GST-CDC6 and in the experiment with GST-Cdt1 was “binds” in each case.

Source of the values: PMC4499137.
